Laboratory results published in patent US8710184B2, “Motilin-like peptide compound having transmucosal absorbability imparted thereto” (Daiichi Sankyo Company, Limited, priority 2009, dated 2014).
Part of at least one peptide drawing is inferred or uncertain, most often the ends. Some entries share one result that the patent states for a list of compounds. Some ranges recur; such a range may be that of the whole group of compounds. Starred links: 1 amine or outer side, 2 acyl side, 3 side chain; linkers in the order of their positions; H or OH if unused. Non-standard residues stand in square brackets, D forms with d. Residues, ends and D or L forms follow the SMILES beside them. No end group written: not given here. X1 = CC(C)[C@@H](C(=O)[*:2])N(C[C@@H](N)Cc1ccccc1)[*:1]; β3hPhg = O=C(C[C@@H](N[*:1])c1ccccc1)[*:2]; Sar = CNCC(=O)O

Legend:
[1] = system: conscious dog's gastrointestinal tract; test: Fasting IMC inducing activity in conscious dogs (force transducers); assay type: in vivo; conditions: for IMC Inducing activity: fasting period, intravenous, 0.1 μg/kg
Source text: More specifically, dogs under anesthesia were subjected to a surgical operation in which force transducers were sutured to the serous membranes of the gastric antrum, duodenum, jejunum and ileum along the ring-shaped muscle and, thereafter, the strain from each transducer was sent to a recorder via an amplifier.

[2] = Pharmacokinetic experiment on pulmonarily administered native motilin and motilin derivative compounds in rats (RIA); assay type: in vivo, rat; conditions: pulmonary administration; for BA: 25 μg/rat, relative to AUC of intravenous native motilin; for profile of plasma concentration compared with native motilin: FIG. 3
Procedure: As test animals, 7- to 10-wk old male SD rats (purchased from CHARLES RIVER LABORATORIES JAPAN, INC.) that consisted of 3 rats per a group were subjected to the following experiment. Native motilin or motilin derivative compounds were dissolved in an aqueous solution of 0.1 N acetic acid to prepare a solution at a concentration of 1 mg/mL and 25 μL of the solution was administered into the polyethylene tube through the trachea by means of an intratracheal liquid spraying device (MicroSprayer; product of Penn Century). […] In the measurement, the respective derivatives were used as standard substances to construct calibration curves for determining the plasma levels.
Using these values, bioavailability (BA (%)) was calculated by the following equation: BA(%)=[(AUC/Dose)/(AUC(motilin—iv)/Dose(motilin—iv))]×100 • AUC: AUC (ng·min/mL) after pulmonary administration • Dose: dose (μg/kg) in pulmonary administration • AUC (motilin_iv): AUC (ng·min/mL) after intravenous administration of native motilin • Dose (motilin_iv): dose (μg/kg) in intravenous administration of native motilin.

Compound	IMC Inducing activity [1]	fasting IMC / contraction pattern compared with native motilin ([1]; intravenous 0.1 μg/kg)	BA ([2]; listed as compound 4)	profile of plasma concentration compared with native motilin [2]	BA ([2]; listed as compound 5)	BA ([2]; listed as compound 7)	BA ([2]; listed as compound 2)	BA ([2]; listed as compound 9)
CC[C@H](C)[C@H](NC(=O)[C@@H]1CCCN1C(=O)[C@@H](NC(=O)C[C@@H](N)c1ccccc1)C(C)C)C(=O)N[C@@H](Cc1ccccc1)C(=O)N[C@H](C(=O)N[C@@H](Cc1ccc(O)cc1)C(=O)NCC(=O)N[C@@H](CCC(=O)O)C(=O)N[C@@H](CC(C)C)C(=O)N[C@@H](CCC(N)=O)C(=O)N[C@@H](CCCNC(=N)N)C(=O)N[C@@H](CC(C)C)C(=O)N[C@@H](CCC(N)=O)C(=O)N[C@@H](CCC(=O)O)C(=O)N[C@@H](CCCCN)C(=O)N[C@@H](CCC(=O)O)C(=O)N[C@@H](CCCNC(=N)N)C(=O)N1CCC[C@H]1C(=O)N[C@@H](CCCCN)C(=O)N1CCC[C@H]1C(=O)N[C@@H](CCC(N)=O)C(=O)O)[C@@H](C)O [Compound 4] (β3hPhg-VPIFTYGELQRLQEKERPKPQ-OH; N-terminus and C-terminus assumed)	Positive	contractions occurred in the same pattern	5.3-18.7%	maintained at higher levels for a longer period than that of native motilin				
CC[C@H](C)[C@H](NC(=O)CN(C)C(=O)[C@@H](NC(=O)C[C@@H](N)c1ccccc1)C(C)C)C(=O)N[C@@H](Cc1ccccc1)C(=O)N[C@H](C(=O)N[C@@H](Cc1ccc(O)cc1)C(=O)NCC(=O)N[C@@H](CCC(=O)O)C(=O)N[C@@H](CC(C)C)C(=O)N[C@@H](CCC(N)=O)C(=O)N[C@@H](CCCNC(=N)N)C(=O)N[C@@H](CC(C)C)C(=O)N[C@@H](CCC(N)=O)C(=O)N[C@@H](CCC(=O)O)C(=O)N[C@@H](CCCCN)C(=O)N[C@@H](CCC(=O)O)C(=O)N[C@@H](CCCNC(=N)N)C(=O)N1CCC[C@H]1C(=O)N[C@@H](CCCCN)C(=O)N1CCC[C@H]1C(=O)N[C@@H](CCC(N)=O)C(=O)O)[C@@H](C)O [Compound 5, Phg(C#CH2) Val Sar Ile Phe Thr Tyr Gly Glu Leu Gln Arg Leu Gln Glu Lys Glu Arg Pro Lys Pro Gln] (β3hPhg-V[Sar]IFTYGELQRLQEKERPKPQ-OH; N-terminus and C-terminus assumed)	Positive			maintained at higher levels for a longer period than that of native motilin	5.3-18.7%			
CC[C@H](C)[C@H](NC(=O)[C@@H]1CCCN1C(=O)[C@@H](NC[C@@H](N)Cc1ccccc1)C(C)C)C(=O)N[C@@H](Cc1ccccc1)C(=O)N[C@H](C(=O)N[C@@H](Cc1ccc(O)cc1)C(=O)NCC(=O)N[C@@H](CCC(=O)O)C(=O)N[C@@H](CC(C)C)C(=O)N[C@@H](CCC(N)=O)C(=O)N[C@@H](CCCNC(=N)N)C(=O)N[C@@H](CC(C)C)C(=O)N[C@@H](CCC(N)=O)C(=O)N[C@@H](CCC(=O)O)C(=O)N[C@@H](CCCCN)C(=O)N[C@@H](CCC(=O)O)C(=O)N[C@@H](CCCNC(=N)N)C(=O)N[C@@H](CC(N)=O)C(=O)N[C@@H](CCCCN)C(=O)N1CCC[C@H]1C(=O)N[C@@H](CCC(N)=O)C(=O)O)[C@@H](C)O [Compound 7] (H-[X1]PIFTYGELQRLQEKERNKPQ-OH; N-terminus and C-terminus assumed)	Positive			maintained at higher levels for a longer period than that of native motilin		5.3-18.7%		
FVPIFTYGELQRLQEKERNKPQ [Compound 2]	Positive			maintained at higher levels for a longer period than that of native motilin			5.3-18.7%	
FVPIFTYGELQRLQEKERPKPQ [Compound 9]	Positive			maintained at higher levels for a longer period than that of native motilin				5.3-18.7%
